Results reported in PubChem BioAssay AID2685 (National Center for Advancing Translational Sciences (NCATS), 2010).
Some of the results follow. Shown are side measurements of this screen, not its main read-out; they come without a call. The list favours compounds with an active or inconclusive main result. Words in brackets tell the shape of the fitted curve; partial curves, single points and poor fits give uncertain potencies.

Assay: qHTS Assay for Lipid Storage Modulators in Drosophila S3 Cells;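 as to cell number change: cells counted by Cell Tracker Red CMTPX staining in the red channel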
Conditions: BODIPY lipid droplet fluorescence, 18-24 h; for cell number change: measured here: cell count max response, cells fed with added oleic acid
Method in brief: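 Drosophila S3 cells got compounds at several concentrations plus oleic acid (400 uM solution). Laser-scanning cytometry with 488 nm excitation read lipid droplets at 500-530 nm and cells at 575-640 nm. Percent activity was relative to 20 uM Triacsin C.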

[1] = measured here: cell number channel AC50, cells fed with added oleic acid
[2] = measured here: lipid fluorescence (Fed channel) AC50, cells fed with added oleic acid

| Compound | cell number change | AC50 [1] | AC50 [2] |
| --- | --- | --- | --- |
| Cc1ccc(Cn2cccc2C2=NC(C)CO2)cc1 (stereo unspecified) | -34.8% | 20.6 µM [falling, partial curve] | 32.6 µM [falling, single point] |
| O=C(CCCSc1nc(-c2ccco2)cc(C(F)(F)F)n1)NCc1cccs1 | 0.598% | 1.84 µM [rising, partial curve, poor fit] | – |
| Cc1ccc2[nH]c(C(=O)N3CCCCC3)cc2c1 | -9.85% | – | 29.1 µM [rising, single point] |
| O=C(CSc1nc(-c2ccccc2)cc(=O)[nH]1)Nc1ccc(F)c(F)c1 | 3.42% | – | 0.411 µM [rising, full curve, poor fit] |
| CCOc1ccc(/C(O)=C2/C(=O)C(=O)N(CCOCCO)C2c2ccc(F)cc2)cc1 (stereo unspecified) | 11.6% | – | – |
| O=C(CSCc1nc2c(nnn2Cc2ccc(F)cc2)c(=O)[nH]1)Nc1c(Cl)cc(Cl)cc1Cl | -39.8% | 23.1 µM [falling, single point] | – |
| CCC1CCc2sc(C(=O)NC3CCN(Cc4ccccc4)CC3)cc2C1 (stereo unspecified) | -0.314% | – | 29.1 µM [falling, single point] |
| COc1ccc(NC(=O)CSc2nc3ccccc3c(=O)n2CCNC(C)=O)cc1 | -42.6% | 16.4 µM [falling, single point] | – |
| COc1ccc(CN(C)C(=O)C2CCN(S(=O)(=O)c3cccs3)CC2)cc1F | -0.222% | – | 0.146 µM [rising, full curve, poor fit] |
| CCOc1ncccc1C(=O)OCC(=O)Nc1ccc(-c2nc3ccc(C)cc3s2)cc1 | -3.87% | – | 0.116 µM [rising, full curve, poor fit] |
| O=C(Nc1cccc(NC(=O)c2cccc(F)c2)n1)c1cccc(F)c1 | – | – | 7.31 µM [falling, partial curve] |
| Cc1nc(NC(=O)CSc2nnc(-c3ccncc3)n2C)sc1C | 12.8% | – | 0.00461 µM [rising, full curve, poor fit] |
| COc1ccc(N2CCN(C(=O)CN3C(=O)NC(C)(c4ccc5ccccc5c4)C3=O)CC2)cc1 (stereo unspecified) | 0.735% | – | 29.1 µM [falling, partial curve, poor fit] |
| CN(C)c1ccc(C(=O)OCC(=O)NCC2CCCO2)cc1 (stereo unspecified) | 16.1% | – | – |
| CN(Cc1ccccc1)S(=O)(=O)c1csc(C(N)=O)c1 | 8.4% | – | 0.58 µM [falling, single point] |
| CC(=O)Nc1ccccc1OCCOc1ccc(Br)cc1 | 66.7% | 29.1 µM [rising, single point] | – |
| CC/C=C(\NC(C)=O)c1ccccc1 | -9.04% | – | 23.1 µM [rising, single point] |
| CCOc1ccc(N(CC(=O)NCc2cccs2)S(=O)(=O)c2c(C)noc2C)cc1 | 0.132% | – | 16.4 µM [rising, partial curve] |
| CCOc1ccccc1/C=N/NC(=O)c1nnn(-c2nonc2N)c1CN1CCCC1 | – | – | 29.1 µM [falling, single point] |
| CCn1c(SCC(=O)Nc2sccc2C(N)=O)nnc1C1CC1 | 46.4% | – | 29.1 µM [rising, single point] |
| Cc1cc(C)c2c(=O)n(CC(=O)Nc3cccc(F)c3)sc2n1 | -65.6% | 29.1 µM [falling, single point] | 0.103 µM [falling, full curve, poor fit] |

Gathered by group: the entries above with an aryl methoxy group.

| Compound | cell number change | AC50 [1] | AC50 [2] |
| --- | --- | --- | --- |
| COc1ccc(NC(=O)CSc2nc3ccccc3c(=O)n2CCNC(C)=O)cc1 | -42.6% | 16.4 µM [falling, single point] | – |
| COc1ccc(CN(C)C(=O)C2CCN(S(=O)(=O)c3cccs3)CC2)cc1F | -0.222% | – | 0.146 µM [rising, full curve, poor fit] |
| COc1ccc(N2CCN(C(=O)CN3C(=O)NC(C)(c4ccc5ccccc5c4)C3=O)CC2)cc1 (stereo unspecified) | 0.735% | – | 29.1 µM [falling, partial curve, poor fit] |

(list continues)

| Compound | cell number change | AC50 [1] | AC50 [2] |
| --- | --- | --- | --- |
| CCN(Cc1ccccc1)S(=O)(=O)c1ccc(F)cc1 | 10% | – | – |
| O=C(O)c1ccc2nc(C(F)(F)F)[nH]c2c1 | -7.69% | – | 0.00517 µM [falling, full curve, poor fit] |
| COc1cccc(CNCc2ccco2)c1O | -17.8% | – | 29.1 µM [falling, single point] |
| COc1ccc(NC(=O)c2[nH]c(C)c(C(C)=O)c2C)cc1 | – | 2.31 µM [rising, partial curve, poor fit] | – |
| Cc1noc(C)c1C(=O)Nc1ccc(F)c(F)c1 | 53.9% | 10.3 µM [rising, partial curve] | – |
| CCCCC(CC)C(=O)Nc1cc(C(=O)NCCC)ccc1N1CCC2(CC1)CC(c1ccccc1)=NO2 (stereo unspecified) | 49.5% | 29.1 µM [rising, single point] | 18.4 µM [falling, single point] |
| Cc1ccccc1N1C(=O)C(Cl)=C(N2CCN(c3ccccc3)CC2)C1=O | 7.95% | – | 0.92 µM [rising, partial curve] |
| CC12CC3CC(C)(C1)CC(C(=O)NC1=NCCS1)(C3)C2 | -20.6% | – | – |
| O=C(Cc1c[nH]c2ccccc12)Nc1nnc(C2CC2)s1 | 15.5% | – | – |
| O=[N+]([O-])c1ccc2nc(-c3cccnc3)[nH]c2c1 | -29.1% | – | 29.1 µM [falling, single point] |
| O=C(COC(=O)C12CC3CC(CC(Br)(C3)C1)C2)N1CCOCC1 | -8.38% | – | – |
| O=CN1CCN(c2c([N+](=O)[O-])c(=O)oc3ccccc23)CC1 | – | – | 4.11 µM [rising, partial curve, poor fit] |
| COc1cc(OC)c(C(=O)OCCCOC(=O)c2cc(OC)c(OC)cc2OC)cc1OC | 2.7% | – | 29.1 µM [falling, single point] |
| c1ccc(-n2ncc(-c3nn[nH]n3)n2)cc1 | 6.69% | – | – |
| CC(C)C[C@H](NC(=O)Nc1ccc(S(N)(=O)=O)cc1)C(=O)O | -34.2% | 51.7 µM [falling, partial curve, poor fit] | – |
| Cc1cc(Nc2ccccc2)n(-c2ccc(Br)cc2)n1 | -17.3% | – | – |
| O=C(CN1C(=O)COc2ccc(Cl)cc21)Nc1ccc2c(c1)OCCO2 | -10.6% | – | – |
| CC(C)NNC(=O)c1ccncc1 | 36.5% | 6.51 µM [rising, partial curve, poor fit] | 5.8 µM [rising, full curve, poor fit] |
| O=C(CSc1ccccn1)Nc1nonc1[N+](=O)[O-] | 5.9% | – | 29.1 µM [rising, single point] |
| O=C1COc2ccc(C(=O)COC(=O)Cc3ccc(F)cc3)cc2N1 | 18.1% | – | – |
| Cc1c(Cl)cccc1NC(=O)Cn1cc(C(F)(F)F)cc(Cl)c1=O | -4.14% | 6.51 µM [rising, single point] | – |

| Compound | cell number change | AC50 [1] | AC50 [2] |
| --- | --- | --- | --- |
| COc1ccccc1-c1cc(C(=O)N/N=C/c2ccc(C)s2)c2ccccc2n1 | – | 1.84 µM [rising, partial curve] | 2.59 µM [rising, partial curve] |
| COc1ccc(NC(=O)c2ccc(-c3nn(C)c(=O)c4ccccc34)cc2)cc1 | 14.4% | – | 0.164 µM [rising, full curve, poor fit] |
| CCOC(=O)N1CCN(S(=O)(=O)c2ccc(C(=O)Nc3nnc(CSC)o3)cc2)CC1 | 8.61% | 1.64 µM [falling, partial curve] | – |
| COC(=O)CN(c1ccc(C(C)C)cc1)S(=O)(=O)c1c(C)[nH]c(=O)[nH]c1=O | -11.1% | – | – |
| CC(C)OC(=O)NC(c1ccccc1)C(Cl)(Cl)Cl (stereo unspecified) | -22.6% | 0.259 µM [falling, single point] | – |
| CC(C)(C)NC(=O)N1c2ccccc2Sc2ccccc21 | -24.6% | – | 0.0731 µM [rising, partial curve] |
| CCOc1ncccc1C(=O)OCc1cccc([N+](=O)[O-])c1 | – | – | 0.291 µM [falling, full curve, poor fit] |
| COc1ccccc1NC(=O)c1nn(C)cc1Br | 21.9% | – | 23.1 µM [rising, single point] |
| CC(=O)Nc1cccc(NC(=O)Nc2cccc3ccccc23)c1 | 12.3% | – | 0.164 µM [rising, full curve] |
| CC1Cc2ccccc2N1C(=O)CSc1nc(N)cc(=O)[nH]1 (stereo unspecified) | -26% | – | 0.13 µM [falling, full curve, poor fit] |
| S=C1N(c2ccccc2)C(c2cccc3ccccc23)N2CCCN12 (stereo unspecified) | 54.8% | 1.84 µM [rising, full curve] | 2.31 µM [rising, partial curve] |
| COc1cccc(C(=O)OCn2nnc3ccccc3c2=O)c1OC | 25.6% | 2.06 µM [rising, partial curve] | 0.0291 µM [rising, full curve, poor fit] |
| CCCOC(=O)c1ccc(N2C(=O)c3ccccc3C2=O)cc1 | 8.04% | – | 18.4 µM [rising, single point] |
| COc1cccc(NC(=O)Nc2cccs2)c1 | – | 0.0291 µM [falling, full curve, poor fit] | 0.0411 µM [falling, full curve, poor fit] |
| CC(C)(C)n1nnnc1C(c1ccc(F)cc1)N(Cc1ccc(F)cc1)Cc1ccco1 (stereo unspecified) | -106% | – | 29.1 µM [falling, single point] |
| Cc1cc(Br)ccc1SCC(=O)OCC(=O)NCc1ccco1 | -47.7% | 29.1 µM [falling, single point] | – |
| O=C(Nc1ccc(S(=O)(=O)Nc2cnc3ccccc3n2)cc1)c1ccccc1Br | -1.74% | – | – |
| CCCCn1c(N)c(N(CCOC)C(=O)c2ccc(S(=O)(=O)N3CCC(C)CC3)cc2)c(=O)[nH]c1=O | 3.21% | – | – |
| Cc1cccc(Nc2nc(N3CCCC3)nc(N3CCCC3)n2)c1 | 145% | 13 µM [rising, partial curve] | 20.6 µM [rising, partial curve] |
| Cc1c(C(=O)O)sc2nc(SCC(=O)Nc3ccc(S(=O)(=O)NCCCC(=O)O)cc3)[nH]c(=O)c12 | -5.44% | 0.461 µM [rising, single point] | – |
| CCOC(=O)N1CCC(NC(=O)c2oc3c(c2C)-c2[nH]ncc2CC3)CC1 | 77.1% | 6.51 µM [falling, single point] | 6.51 µM [falling, partial curve] |
